{"source": "patent US20230174633A1", "about": "“METHODS AND COMPOSITIONS FOR MODULATING LIPID STORAGE IN ADIPOSE TISSUE” (MEMORIAL SLOAN KETTERING CANCER CENTER, priority 2020, published 2023)", "key": {"Lepr^-/- (db/db) mice": {"test_system": "Lepr^-/- (db/db) mice", "assay": "PLX5622 treatment of leptin-receptor deficient mice that spontaneously develop obesity", "assay_type": "in vivo, mouse", "settings": "PLX5622 in diet; versus untreated controls", "excerpt": "(§1) Mice and diets. All experiments on mice were realized in accordance with an animal license issued by the Institutional Review Board (IACUC 15-04-006) from MSKCC. All mice were maintained under SPF conditions. C57B1/6J male mice were purchased from Jackson laboratories. Rosa26^LSL-Tomato (Stock No: 007908), Rosa26^LSL-^YFP (Stock No:006148), Rosa26^mTmG (Stock No: 007576) and Lepr^-/-(db/db) (herein referred to as Lepr^-/-; Stock No: 000697) mice were purchased from Jackson laboratories and bred in house. Csf1r^Cre, Csf1r^MeriCreMer, and Csf1r^fl/fl mice were obtained from J W. Pollard (The University of Edinburgh), Cx3cr1^GFP/+ mice were obtained from Drs. Dan Littman (NYU Skirball institute), Flt3^Cre mice were obtained from Thomas Boehm (Max Planck institute) and Tnfrsf11a^Cre mice were obtained from Y. Kobayashi (Matsumoto Dental University). Ccr2^-/- mice were obtained from IF. Charro (UCSF) Csf1r^-/- mice were backcrossed to FVB/NJ for more than 10 generations. Mice were fed ad libitum a rodent irradiated diet containing 45% kcal from lipids (Research Diets Inc., reference D12451i) or 10% kcal from lipids (Research Diets Inc., reference D12450hi) for 8 weeks. In mice supplemented with the CSF-1R inhibitor PLX5622 (Plexxikon), the aforementioned diets were impregnated with 1200 mg of inhibitor per kg of food. […]\nTriglyceride Measurement for Mice. […] Triglyceride was then measured using the free glycerol reagent (Sigma; F6428) as described in the manufacturer’s protocol and normalized to the liver weight.\nTo quantify the size of the adipocytes, the software image J was used. Regions of interest (ROI) were drawn following the cellular membrane of the adipocytes and the surface of the ROI was determined by the software. 50 adipocytes were measured per field of view of the eWAT. Adipocytes were measured on 3 fields of view, taken with N-Achroplan 10x/0.25 objective. Crown-like structures (CLS) were quantified on the same fields of view. […]"}, "C57B1/6J mice": {"test_system": "C57B1/6J mice", "assay": "Treatment of C57Bl/6J mice fed 45% or 10% lipid diet (diet-induced obesity)", "assay_type": "in vivo, mouse", "settings": "1,200 mg PLX5622/kg of food; versus control mice", "excerpt": "as §1, with “weeks.” for “weeks. In mice supplemented with the CSF-1R inhibitor PLX5622 (Plexxikon), the aforementioned diets were impregnated with 1200 mg of inhibitor per kg of food.”\nGlucose and insulin tolerance tests were performed as described; in brief, for the glucose tolerance test, the mice were fasted for 4h before experiment, but had water ad libitum. The weight and glycaemia were measured, and the mice were injected intraperitoneally with 2 g glucose (Thermo Scientific) per kg of body weight. Following the glucose injection, glycemia was measured every 30 min for 2 hours. […] The weight and the glycaemia were measured, and the mice were injected with 0.25U insulin (Sigma) per kg of body weight. Following the glucose injection, glycemia was measured every 30 min for 2 hours. […]\nInfrared imaging of mice. […] These images were into RAW files and then analyzed in AMIDE. […] The 10% top warmest pixels were used for interscapular and inguinal quantifications. The 20% top warmest pixels were used for dorsal quantifications. […]"}}, "data": [{"smiles": "COc1ncc(F)cc1CNc1ccc(Cc2c[nH]c3ncc(C)cc23)c(F)n1", "note": "[PLX5622]", "values": [{"measurement": "ambulatory activity", "setting": "Lepr^-/- (db/db) mice", "value": "did not detectably modify"}, {"measurement": "fecal caloric density", "setting": "Lepr^-/- (db/db) mice", "value": "did not detectably modify"}, {"measurement": "food intake", "setting": "Lepr^-/- (db/db) mice", "value": "did not detectably modify"}, {"measurement": "ambulatory activity", "setting": "C57B1/6J mice", "value": "no different"}, {"measurement": "fecal caloric density", "setting": "C57B1/6J mice", "value": "no different"}, {"measurement": "food intake", "setting": "C57B1/6J mice", "value": "no different"}]}]}
